Data taken from PubChem BioAssay AID2685 (National Center for Advancing Translational Sciences (NCATS), 2010).
Some of the results follow. Shown are side measurements of this screen, not its main read-out; they come without a call. The list favours compounds with an active or inconclusive main result. The note in brackets gives the kind of curve behind each potency; many fits are weak.

Assay: qHTS Assay for Lipid Storage Modulators in Drosophila S3 Cells;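 as to cell number change: cells counted by Cell Tracker Red CMTPX staining in the red channel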
Conditions: BODIPY lipid droplet fluorescence, 18-24 h; for cell number change: measured here: cell count max response, cells fed with added oleic acid
Outline: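 Drosophila S3 cells got compounds at several concentrations plus oleic acid (400 uM solution). Laser-scanning cytometry with 488 nm excitation read lipid droplets at 500-530 nm and cells at 575-640 nm. Percent activity was relative to 20 uM Triacsin C.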

[1] = measured here: cell number channel AC50, cells fed with added oleic acid
[2] = measured here: lipid fluorescence (Fed channel) AC50, cells fed with added oleic acid

Row | SMILES | AC50 [1] | AC50 [2] | cell number change
1 | CC(Oc1ccc(Cl)cc1)C(=O)NCCCn1ccnc1 (configuration not stated) | 6.51 µM [rising, single point] | 0.00517 µM [rising, full curve, poor fit] | 
2 | O=[N+]([O-])c1ccc2c(c1)nnn2-c1ccccc1 |  |  | -7.61%
3 | O=S(=O)(c1ccc(N2CCOCC2)c(Cl)c1)N1CCOCC1 |  | 0.231 µM [rising, full curve] | -8.82%
4 | O=C1CN(/N=C/c2ccc([N+](=O)[O-])o2)C(=O)N1 | 0.461 µM [falling, full curve] | 8.2 µM [falling, partial curve, poor fit] | -37.9%
5 | Cc1ccc(CNC(=O)c2oc3ccc(S(=O)(=O)N4CCOCC4)cc3c2C)cc1 |  |  | -0.959%
6 | CCCCc1sc(-c2c(C#N)c(N)nc3c2CCCCC3)cc1[N+](=O)[O-] |  |  | -22.6%
7 | Cn1nccc1C(=O)NC1CCCc2c1cnn2-c1ccc(C(C)(C)C)cc1 (configuration not stated) |  |  | -15.3%
8 | O=C1CN(C(=O)COC(=O)C23CC4CC(CC(O)(C4)C2)C3)c2ccccc2N1 | 25.9 µM [falling, partial curve] | 0.13 µM [falling, full curve, poor fit] | -151%
9 | COc1ccc(S(=O)(=O)N2CCCC2)cc1NC(=O)c1ccccc1 |  |  | 18.8%
10 | CC(=O)Nc1nonc1NC(=O)c1ccc(F)cc1 | 0.0651 µM [falling, full curve] | 0.651 µM [falling, full curve] | -33.1%
11 | COc1ccc(C(c2nnnn2C2CCCC2)N2CCN(C3CCCC3)CC2)cc1OC (configuration not stated) | 29.1 µM [falling, single point] |  | -68.1%
12 | COc1ccc(N=Cc2sc(O)c3ccccc23)cc1 | 23.1 µM [falling, single point] | 29.1 µM [falling, single point] | -91%
13 | CC1CN(S(=O)(=O)c2cccc(C(=O)Nc3ccccc3N3CCCC3)c2)CC(C)O1 (configuration not stated) | 2.59 µM [rising, full curve] |  | 58.5%
14 | Cc1cccc(-c2c3c(=O)n(C)c(=O)n(C)c3cn2CC2CCCO2)c1 (configuration not stated) |  |  | 9.4%
15 | CN(C(=O)COC(=O)CNS(=O)(=O)/C=C/c1ccccc1)C1CCS(=O)(=O)C1 (configuration not stated) |  | 23.1 µM [rising, single point] | 1.67%
16 | COC(=O)/C(=C(/F)Sc1cc(C)c(O)c(C)c1)C(F)(F)F | 3.26 µM [falling, full curve] | 3.66 µM [falling, full curve] | -38.2%
17 | CC(C)Cn1nc(NC(=O)C2CCCO2)c2cc3ccccc3nc21 (configuration not stated) |  |  | -22.1%
18 | Fc1cccc(-c2nn[nH]n2)c1 |  | 6.51 µM [falling, single point] | 27.3%
19 | CCc1ccc(N2CC(C(=O)N3CCCCCC3)CC2=O)cc1 (configuration not stated) |  | 1.64 µM [rising, partial curve, poor fit] | 12%
20 | COc1ccc(N2CCN(c3cnc4ccccc4n3)CC2)cc1 |  | 0.146 µM [rising, full curve, poor fit] | 18.8%

Row | SMILES | AC50 [1] | AC50 [2] | cell number change
21 | COc1ccc(OCc2nnnn2-c2ccccc2)cc1 | 4.61 µM [rising, single point] | 3.66 µM [rising, single point] | 
22 | CS(=O)(=O)c1ccc(C(=O)OCC(=O)NC(=O)C2CCCCC2)cc1[N+](=O)[O-] | 18.4 µM [falling, single point] | 29.1 µM [falling, partial curve, poor fit] | -45.6%
23 | O=C(Cc1ccc(-n2c(=O)c3sccc3n(CC(=O)Nc3ccccc3)c2=O)cc1)NCc1ccco1 |  |  | -13.1%
24 | CC(=O)c1ccc(NC(=O)Cn2cnc(S(=O)(=O)N3CCc4ccccc43)c2)cc1 | 0.82 µM [rising, full curve, poor fit] |  | 22.9%
25 | Cc1cc(-c2ccccc2)nc(N(C)C)c1S(C)(=O)=O |  |  | 6.1%
26 | COc1ccc(C(=O)/C=C/c2ccc(OC)c(Cn3nnc4ccccc43)c2)cc1 |  | 29.1 µM [falling, single point] | -12.4%
27 | CCC1SC2=NC(C)=C(C(=O)OC)C(c3cccs3)N2C1=O (configuration not stated) |  | 29.1 µM [falling, single point] | 12%
28 | NC(=O)c1ccc(SCC(=O)OCC(=O)NCc2ccco2)c([N+](=O)[O-])c1 |  |  | 7.13%
29 | CC(C)c1ccc(C(C(=O)NC2CCCCC2)N(C(=O)c2csnn2)C2CC2)cc1 (configuration not stated) |  | 1.3 µM [rising, full curve, poor fit] | 15%
30 | COC(=O)c1oc2ccc(Cl)cc2c1N |  | 1.3 µM [rising, partial curve, poor fit] | 0.397%
31 | Cn1c(N)c(C(=O)COC(=O)CCCc2c[nH]c3ccccc23)c(=O)n(C)c1=O | 29.1 µM [rising, single point] | 0.731 µM [falling, single point] | 83.8%
32 | Cc1c(C(=O)OC2CCC(C)CC2)[nH]c2c1C(=O)CCC2 (configuration not stated) |  | 6.51 µM [rising, single point] | 6.32%
33 | CC(C)N(c1ccccc1)c1ncnc(NCCC(=O)O)c1[N+](=O)[O-] |  | 20.6 µM [falling, partial curve] | -12%
34 | COc1ccccc1-n1nnnc1SCC(=O)N(C)C1CCS(=O)(=O)C1 (configuration not stated) |  | 0.82 µM [rising, full curve] | 7.72%
35 | COc1ccc(-c2oc3ccccc3c2C(=O)OCc2ccccc2)cc1 | 0.116 µM [rising, full curve, poor fit] |  | 34.6%
36 | CCC(=O)N(Cc1ccco1)c1nc(-c2ccccc2)cs1 | 29.1 µM [falling, single point] |  | -45.4%
37 | c1ccc2c(c1)N1CCN=C1N2CCN1CCCCC1 | 5.8 µM [falling, full curve] | 6.51 µM [falling, single point] | -49.3%
38 | CC1CCCCN1CCNC(=O)c1ccc2c(=O)n(Cc3ccc(Cl)cc3)c(=S)[nH]c2c1 (configuration not stated) | 6.51 µM [rising, single point] | 0.326 µM [rising, full curve] | 2.59%
39 | COc1ccc(S(=O)(=O)N(CCc2ccccc2)CC(=O)NC(C)C)cc1 |  | 18.4 µM [rising, partial curve] | 23.1%

Ordered by molecular weight (rising): some entries from above.
Row | SMILES | AC50 [1] | AC50 [2] | cell number change
4 | O=C1CN(/N=C/c2ccc([N+](=O)[O-])o2)C(=O)N1 | 0.461 µM [falling, full curve] | 8.2 µM [falling, partial curve, poor fit] | -37.9%
2 | O=[N+]([O-])c1ccc2c(c1)nnn2-c1ccccc1 |  |  | -7.61%
1 | CC(Oc1ccc(Cl)cc1)C(=O)NCCCn1ccnc1 (configuration not stated) | 6.51 µM [rising, single point] | 0.00517 µM [rising, full curve, poor fit] | 
19 | CCc1ccc(N2CC(C(=O)N3CCCCCC3)CC2=O)cc1 (configuration not stated) |  | 1.64 µM [rising, partial curve, poor fit] | 12%
17 | CC(C)Cn1nc(NC(=O)C2CCCO2)c2cc3ccccc3nc21 (configuration not stated) |  |  | -22.1%
3 | O=S(=O)(c1ccc(N2CCOCC2)c(Cl)c1)N1CCOCC1 |  | 0.231 µM [rising, full curve] | -8.82%
8 | O=C1CN(C(=O)COC(=O)C23CC4CC(CC(O)(C4)C2)C3)c2ccccc2N1 | 25.9 µM [falling, partial curve] | 0.13 µM [falling, full curve, poor fit] | -151%
5 | Cc1ccc(CNC(=O)c2oc3ccc(S(=O)(=O)N4CCOCC4)cc3c2C)cc1 |  |  | -0.959%
